From EP1210336B1, “SUBSTITUTED BENZIMIDAZOLES AS NON-NUCLEOSIDE INHIBITORS OF REVERSE TRANSCRIPTASE” (THE UNITED STATES OF AMERICA, as represented by the …, priority 1999, dated 2001)
For at least one compound, name, drawing or mass did not settle the structure.

Target: T1, HIV-1 WT RT (Human immunodeficiency virus type 1 group M subtype B, UniProt P03366)
T1 construct: purified RT protein (0.015 mg/mL) was incubated in a 100 µL reaction mixture
Assay type: biochemical
Conditions: Table 7; WT HIV-1 RT, 1 µM drug

Row | Structure (SMILES) | %inhibn (1µM) [%]
1 | CC(=O)N(C)c1cccc2c1nc(-c1c(F)cccc1F)n2Cc1c(F)cccc1F [compound 57, 1-(2,6-Difluorobenzyl)-2-(2,6-difluorophenyl)-4-(N-methylacetamido)-benzimidazole] | 77
2 | CNc1cccc2c1nc(-c1c(F)cccc1F)n2Cc1c(F)cccc1F [compound 58, 1-(2,6-Difluorobenzyl)-2-(2,6-difluorophenyl)-4-(N-methylamino)-benzimidazole] | 24
